Data source: PubChem BioAssay AID1224828 (NIAID, 2016)

Purpose: 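Knock-downs that increase or decrease LPS-induced p65 nuclear translocation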 (primary screen)
Cells: mouse RAW264.7 G9 macrophage reporter cells (GFP-p65, Tnf promoter-mCherry)
Knock-down reagent: siRNA pool against mouse genes, 100 nM
Time to read-out: 2 days siRNA transfection, then 40 min LPS before fixation
Treatment: LPS (Salmonella minnesota R595) at 10 ng/ml
Detection: 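Microscopy ratio of nuclear to perinuclear-ring GFP-p65 signal, scaled to the plate median; gene score is the average of two replicate robust z-scores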
Reading the numbers: p65 translocation robust z-score: higher = more nuclear NF-kappaB p65 after LPS than the plate median; nuclear/cytoplasmic p65 ratio: higher = more nuclear NF-kappaB p65
Hit rule: 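Active if robust z is above 3.3 (negative regulators) or below -1.56, the Tlr4 control median (positive regulators); activity score 50 or more; control wells not called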
Meaning of the calls: active = hit (p65 shift raised or lowered); inactive = no clear change
In all, the deposit lists about 17,000 reagents; shown is a random part of them. 762 of all reagents (4.5%) were called active. 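Active calls include both raised and lowered p65 entry, mostly lowered; wells with fewer than 50 cells lack a z-score.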 Raw values vary from plate to plate and are shown uncorrected. A reagent listed more than once was tested more than once; the source does not tell the runs apart.

Gene | p65 translocation robust z-score | nuclear/cytoplasmic p65 ratio, rep 1 | nuclear/cytoplasmic p65 ratio, rep 2 | low cell count flag | Call
Gzmc | -2.11 | 1.34 | 1.26 | enough cells to score | active
Nanos3 | -0.38 | 1.73 | 1.53 | enough cells to score | inactive
Chrd | 1.19 | 1.76 | 1.99 | enough cells to score | inactive
Dnaaf1 | -0.2 | 1.24 | 0.983 | enough cells to score | inactive
Bsg | 0.78 | 1.74 | 1.72 | enough cells to score | inactive
Or51g2 | 1.59 | 1.38 | 1.45 | enough cells to score | inactive
Tmem214 | -0.11 | 1.44 | 1.51 | enough cells to score | inactive
Or14a260 | 0.28 | 1.65 | 1.33 | enough cells to score | inactive
Pou4f3 | 1.02 | 1.34 | 1.54 | enough cells to score | inactive
Erp44 | -0.18 | 1.5 | 1.47 | enough cells to score | inactive
Cd99l2 | -1.61 | 1.45 | 1.32 | enough cells to score | active
BC024139 | 0.28 | 1.31 | 1.89 | enough cells to score | inactive
B130006D01Rik | 0.72 | 1.67 | 1.65 | enough cells to score | inactive
Mal | 1.35 | 1.95 | 1.72 | enough cells to score | inactive
Pilra | – | 1.51 | 1.19 | fewer than 50 cells per well; well left out of scoring | inactive
Vmn1r26 | -1.02 | 1.28 | 1.09 | enough cells to score | inactive
Telo2 | – | 1.52 | 1.58 | fewer than 50 cells per well; well left out of scoring | inactive
Slc11a1 | -1.8 | 1.13 | 1.08 | enough cells to score | active
Hspa2 | – | 1.34 | 1.3 | fewer than 50 cells per well; well left out of scoring | inactive
Zfp148 | 0.81 | 1.62 | 1.62 | enough cells to score | inactive
Acbd5 | -0.1 | 1.59 | 1.67 | enough cells to score | inactive
C1qbp | 0.2 | 1.55 | 1.45 | enough cells to score | inactive
Cntrob | -1.11 | 1.32 | 1.34 | enough cells to score | inactive
Mylk3 | -0.32 | 1.71 | 1.28 | enough cells to score | inactive
Relb | – | 1.5 | 1.61 | fewer than 50 cells per well; well left out of scoring | inactive
Dock3 | -0.12 | 1.45 | 1.37 | enough cells to score | inactive
Tppp | – | 1.03 | 1.16 | fewer than 50 cells per well; well left out of scoring | inactive
Atp6v0c | -0.44 | 1.54 | 1.45 | enough cells to score | inactive
Aldh1a1 | 0.1 | 1.57 | 1.7 | enough cells to score | inactive
Trem4 | 0.92 | 1.58 | 1.57 | enough cells to score | inactive
Nrg1 | -1.2 | 1.53 | 1.49 | enough cells to score | inactive
Vmn1r69 | – | 1.23 | 1.1 | fewer than 50 cells per well; well left out of scoring | inactive
Hpvc-ps (retired record) | -1.58 | 1.51 | 1.33 | enough cells to score | active
Cd2 | 0.65 | 1.39 | 1.46 | enough cells to score | inactive
Add1 | -0.68 | 1.5 | 1.53 | enough cells to score | inactive
Hnrnpm | 1.83 | 1.94 | 1.79 | enough cells to score | inactive
Cyp2c38 | -0.76 | 1.44 | 1.69 | enough cells to score | inactive
Osbpl11 | -0.56 | 1.4 | 1.15 | enough cells to score | inactive
Gvin1 | 0.61 | 1.57 | 1.57 | enough cells to score | inactive
Stk11ip | -1.33 | 1.34 | 0.97 | enough cells to score | inactive
Slc46a2 | 1.51 | 1.58 | 1.4 | enough cells to score | inactive
Rab14 | 0.13 | 1.36 | 1.26 | enough cells to score | inactive
Cabp4 | -1.33 | 1.28 | 1.56 | enough cells to score | inactive
Sarnp | – | 1.32 | 1.42 | fewer than 50 cells per well; well left out of scoring | inactive
Rpl39 | -1.1 | 1.23 | 1.13 | enough cells to score | inactive
Or7e174 | – | 1.48 | 1.72 | fewer than 50 cells per well; well left out of scoring | inactive
Or51a5 | -0.72 | 1.34 | 1.24 | enough cells to score | inactive
Pex26 | – | 1.26 | 1.07 | fewer than 50 cells per well; well left out of scoring | inactive
Mtln | – | 1.46 | 1.45 | fewer than 50 cells per well; well left out of scoring | inactive
Ppef2 | 1.63 | 1.62 | 1.72 | enough cells to score | inactive
Bmp2k | -0.11 | 1.61 | 1.42 | enough cells to score | inactive
Hus1 | -1.12 | 1.2 | 1.25 | enough cells to score | inactive
Ndufs8 | -1.59 | 1.16 | 1.21 | enough cells to score | active
Ippk | -0.84 | 1.53 | 1.3 | enough cells to score | inactive
Ippk | – | 1.27 | 1.17 | fewer than 50 cells per well; well left out of scoring | inactive
Kcnc3 | 0.14 | 1.56 | 1.34 | enough cells to score | inactive
Ckm | -1.33 | 1.4 | 1.28 | enough cells to score | inactive
Dhx38 | 0.51 | 1.53 | 1.56 | enough cells to score | inactive
Crabp2 | 1.34 | 1.76 | 2.02 | enough cells to score | inactive

Look-ups from the list.
Entry of Dnaaf1 in “Call”: inactive
Under “p65 translocation robust z-score”, Vmn1r26 reads -1.02
